From PMC2211465
These are yes or no findings as the source states them, for the method shown. Binding seen in cells or lysates may run through a third protein. Some binding calls cover weakened binding; strength is not graded here. Where a sequence is shown, tags or fusion partners need not be part of it. Blank lines part the entries; values can stand above or below the molecule they belong to.

The chains behind the UniProt entries cited, without tags or fusion partners.
UniProt O35625: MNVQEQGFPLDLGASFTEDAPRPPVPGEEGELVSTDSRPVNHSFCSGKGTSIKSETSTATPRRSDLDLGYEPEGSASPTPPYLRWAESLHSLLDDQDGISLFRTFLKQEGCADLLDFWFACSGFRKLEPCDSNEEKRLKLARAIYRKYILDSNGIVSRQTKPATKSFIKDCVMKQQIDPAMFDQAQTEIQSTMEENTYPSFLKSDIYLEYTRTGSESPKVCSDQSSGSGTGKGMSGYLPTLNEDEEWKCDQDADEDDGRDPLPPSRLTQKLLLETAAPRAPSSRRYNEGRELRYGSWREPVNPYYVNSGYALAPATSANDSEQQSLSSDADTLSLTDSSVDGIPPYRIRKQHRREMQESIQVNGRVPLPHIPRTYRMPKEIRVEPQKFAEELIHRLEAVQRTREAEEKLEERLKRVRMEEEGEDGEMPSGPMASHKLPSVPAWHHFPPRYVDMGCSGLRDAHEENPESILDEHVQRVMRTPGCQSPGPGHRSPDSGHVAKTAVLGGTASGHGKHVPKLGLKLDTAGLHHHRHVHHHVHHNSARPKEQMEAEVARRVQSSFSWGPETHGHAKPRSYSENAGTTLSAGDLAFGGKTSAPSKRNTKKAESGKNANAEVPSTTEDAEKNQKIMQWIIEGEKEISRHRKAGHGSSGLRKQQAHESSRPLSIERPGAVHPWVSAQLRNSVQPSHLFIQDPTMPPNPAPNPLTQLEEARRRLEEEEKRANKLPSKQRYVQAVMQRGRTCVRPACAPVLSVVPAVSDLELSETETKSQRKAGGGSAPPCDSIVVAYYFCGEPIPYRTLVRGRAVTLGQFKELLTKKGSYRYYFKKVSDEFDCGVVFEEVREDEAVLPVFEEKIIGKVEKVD
UniProt P49841: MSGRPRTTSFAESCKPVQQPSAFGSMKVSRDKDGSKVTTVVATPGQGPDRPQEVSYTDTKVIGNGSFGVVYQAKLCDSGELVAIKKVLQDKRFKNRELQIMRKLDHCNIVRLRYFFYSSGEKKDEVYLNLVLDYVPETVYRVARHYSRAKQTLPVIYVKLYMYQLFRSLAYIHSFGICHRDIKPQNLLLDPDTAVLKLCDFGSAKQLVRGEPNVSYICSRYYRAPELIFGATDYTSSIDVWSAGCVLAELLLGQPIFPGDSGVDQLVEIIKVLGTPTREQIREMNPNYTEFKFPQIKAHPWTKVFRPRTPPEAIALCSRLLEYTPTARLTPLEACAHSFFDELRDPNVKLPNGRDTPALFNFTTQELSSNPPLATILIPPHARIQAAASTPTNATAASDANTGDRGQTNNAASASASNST
UniProt P35222: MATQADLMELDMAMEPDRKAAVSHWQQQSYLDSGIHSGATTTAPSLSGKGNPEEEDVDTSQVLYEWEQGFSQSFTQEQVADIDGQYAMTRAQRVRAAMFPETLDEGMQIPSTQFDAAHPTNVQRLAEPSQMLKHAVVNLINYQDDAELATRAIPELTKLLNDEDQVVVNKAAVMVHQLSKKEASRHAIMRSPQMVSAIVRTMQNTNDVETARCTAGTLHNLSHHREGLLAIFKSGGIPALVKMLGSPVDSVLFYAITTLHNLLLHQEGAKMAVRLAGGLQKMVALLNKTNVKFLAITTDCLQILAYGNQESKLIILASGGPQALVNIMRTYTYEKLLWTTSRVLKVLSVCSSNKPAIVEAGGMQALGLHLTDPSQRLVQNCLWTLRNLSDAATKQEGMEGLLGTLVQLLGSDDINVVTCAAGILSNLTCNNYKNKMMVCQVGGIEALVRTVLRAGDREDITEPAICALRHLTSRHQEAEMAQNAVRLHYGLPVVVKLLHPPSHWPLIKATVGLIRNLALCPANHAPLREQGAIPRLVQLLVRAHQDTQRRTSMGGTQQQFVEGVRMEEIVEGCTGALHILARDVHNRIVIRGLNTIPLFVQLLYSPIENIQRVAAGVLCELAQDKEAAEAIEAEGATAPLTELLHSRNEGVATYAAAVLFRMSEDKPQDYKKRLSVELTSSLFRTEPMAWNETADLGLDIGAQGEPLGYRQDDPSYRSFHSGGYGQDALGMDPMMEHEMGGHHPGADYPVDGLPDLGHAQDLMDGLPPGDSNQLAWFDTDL

Columns and labels:
Dvl2-Rluc (mouse) = molecular target: T1, Dvl2-Rluc (mouse) (UniProt Q60838); assay: FRET or BRET; BRET^2 in live HEK 293 cells stably expressing Rfz1, Rluc and GFP2 fusions transiently co-transfected for 48 h; unstimulated or treated with Wnt3a (20 ng/ml) for 15 min (no significant change of the signal); DeepBlue C 5 μM; ratio of 515 nm over 400 nm
T1 sequence: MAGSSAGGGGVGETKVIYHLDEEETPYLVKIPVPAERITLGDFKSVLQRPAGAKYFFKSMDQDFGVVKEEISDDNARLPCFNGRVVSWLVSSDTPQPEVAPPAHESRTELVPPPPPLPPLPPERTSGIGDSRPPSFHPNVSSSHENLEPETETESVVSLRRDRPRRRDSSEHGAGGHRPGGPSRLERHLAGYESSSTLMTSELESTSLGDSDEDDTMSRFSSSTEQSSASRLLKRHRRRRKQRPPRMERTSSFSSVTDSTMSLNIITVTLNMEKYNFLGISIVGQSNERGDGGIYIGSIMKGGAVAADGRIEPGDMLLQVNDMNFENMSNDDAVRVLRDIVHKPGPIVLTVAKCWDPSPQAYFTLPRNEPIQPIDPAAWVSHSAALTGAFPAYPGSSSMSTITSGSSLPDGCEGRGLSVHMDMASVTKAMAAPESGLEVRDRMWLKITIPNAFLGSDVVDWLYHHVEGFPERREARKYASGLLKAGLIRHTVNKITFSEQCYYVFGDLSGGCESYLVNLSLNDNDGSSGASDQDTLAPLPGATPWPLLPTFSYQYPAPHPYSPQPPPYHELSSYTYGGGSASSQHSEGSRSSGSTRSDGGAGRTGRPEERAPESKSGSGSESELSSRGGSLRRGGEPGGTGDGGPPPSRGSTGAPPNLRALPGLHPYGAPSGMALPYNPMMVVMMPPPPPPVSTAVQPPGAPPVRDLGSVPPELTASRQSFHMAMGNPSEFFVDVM

Axin-Rluc (mouse) = Axin-Rluc (mouse) (UniProt O35625); assay: as above

binding (Dvl2-Rluc (mouse)): binds
binding (Axin-Rluc (mouse)): binds
Molecule: GSK3-GFP2 (from UniProt P49841 1-420) (enzyme)

binding (Axin-Rluc (mouse)): binds
Molecule: β-catenin-GFP2 (from UniProt P35222 1-781)

binding (Axin-Rluc (mouse)): binds
B1: Dvl2-GFP2 (protein, UniProt Q60838 1-736)
chain: T1 sequence
